Data taken from the supplement of paper PMC10849652.
The list shows a part of the results.

Amino acid sequences for entries named in this document (tags omitted). A change or cut given only in a name is not applied to a line headed by its entry.
UniProt Q7L266: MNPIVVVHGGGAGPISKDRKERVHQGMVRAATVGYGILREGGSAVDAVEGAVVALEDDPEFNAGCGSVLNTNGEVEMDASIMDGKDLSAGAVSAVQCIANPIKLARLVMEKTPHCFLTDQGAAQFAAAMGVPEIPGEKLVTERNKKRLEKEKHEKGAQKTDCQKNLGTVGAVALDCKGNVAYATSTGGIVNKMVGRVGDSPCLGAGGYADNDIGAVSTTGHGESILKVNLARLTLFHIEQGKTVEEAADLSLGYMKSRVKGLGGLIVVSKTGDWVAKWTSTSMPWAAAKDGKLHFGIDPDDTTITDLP
UniProt Q13733, whole entry, looked up: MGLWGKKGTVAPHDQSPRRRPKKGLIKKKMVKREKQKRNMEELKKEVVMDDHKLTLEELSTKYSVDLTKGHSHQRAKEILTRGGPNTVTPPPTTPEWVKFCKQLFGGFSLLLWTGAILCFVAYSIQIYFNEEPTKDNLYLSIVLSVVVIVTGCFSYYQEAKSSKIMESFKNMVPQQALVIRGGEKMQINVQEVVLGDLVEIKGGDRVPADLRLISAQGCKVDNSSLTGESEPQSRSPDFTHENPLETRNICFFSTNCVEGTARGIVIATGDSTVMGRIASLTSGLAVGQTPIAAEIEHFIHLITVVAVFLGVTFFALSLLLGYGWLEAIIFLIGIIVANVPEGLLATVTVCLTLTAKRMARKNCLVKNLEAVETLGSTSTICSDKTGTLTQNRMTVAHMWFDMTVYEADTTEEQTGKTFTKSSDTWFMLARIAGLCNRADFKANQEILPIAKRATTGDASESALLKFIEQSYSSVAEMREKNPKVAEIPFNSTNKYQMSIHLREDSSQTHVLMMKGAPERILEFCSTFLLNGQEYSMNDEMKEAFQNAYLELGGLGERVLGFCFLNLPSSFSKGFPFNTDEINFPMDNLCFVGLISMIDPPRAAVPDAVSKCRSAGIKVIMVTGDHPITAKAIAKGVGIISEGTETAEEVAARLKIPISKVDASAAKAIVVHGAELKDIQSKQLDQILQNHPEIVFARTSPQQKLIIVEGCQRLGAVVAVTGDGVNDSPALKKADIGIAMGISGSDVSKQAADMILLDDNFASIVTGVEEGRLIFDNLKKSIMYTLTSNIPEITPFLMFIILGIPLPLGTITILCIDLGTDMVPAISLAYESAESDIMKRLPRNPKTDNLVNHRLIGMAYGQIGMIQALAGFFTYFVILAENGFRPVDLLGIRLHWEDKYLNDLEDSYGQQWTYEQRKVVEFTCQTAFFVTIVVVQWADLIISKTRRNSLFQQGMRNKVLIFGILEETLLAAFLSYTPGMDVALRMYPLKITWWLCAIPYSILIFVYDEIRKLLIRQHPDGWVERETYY
UniProt P56385: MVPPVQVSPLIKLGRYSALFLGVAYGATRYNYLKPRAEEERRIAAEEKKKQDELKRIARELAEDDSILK
UniProt P24539: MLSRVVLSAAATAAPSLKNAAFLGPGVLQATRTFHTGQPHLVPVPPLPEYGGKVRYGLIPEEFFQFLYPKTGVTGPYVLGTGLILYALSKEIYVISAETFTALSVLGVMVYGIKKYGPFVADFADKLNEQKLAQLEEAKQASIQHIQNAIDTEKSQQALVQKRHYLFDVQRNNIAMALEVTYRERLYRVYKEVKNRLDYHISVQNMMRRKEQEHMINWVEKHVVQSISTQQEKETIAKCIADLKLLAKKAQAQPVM
UniProt Q8N5M1: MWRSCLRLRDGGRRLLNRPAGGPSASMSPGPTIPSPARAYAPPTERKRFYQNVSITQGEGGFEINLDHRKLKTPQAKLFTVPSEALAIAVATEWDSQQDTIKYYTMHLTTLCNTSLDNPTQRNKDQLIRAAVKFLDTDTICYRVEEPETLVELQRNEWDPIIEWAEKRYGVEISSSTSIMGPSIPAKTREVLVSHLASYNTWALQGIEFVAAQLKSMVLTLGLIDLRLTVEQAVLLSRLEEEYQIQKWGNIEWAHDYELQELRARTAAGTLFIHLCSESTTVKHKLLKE
UniProt Q9UH62: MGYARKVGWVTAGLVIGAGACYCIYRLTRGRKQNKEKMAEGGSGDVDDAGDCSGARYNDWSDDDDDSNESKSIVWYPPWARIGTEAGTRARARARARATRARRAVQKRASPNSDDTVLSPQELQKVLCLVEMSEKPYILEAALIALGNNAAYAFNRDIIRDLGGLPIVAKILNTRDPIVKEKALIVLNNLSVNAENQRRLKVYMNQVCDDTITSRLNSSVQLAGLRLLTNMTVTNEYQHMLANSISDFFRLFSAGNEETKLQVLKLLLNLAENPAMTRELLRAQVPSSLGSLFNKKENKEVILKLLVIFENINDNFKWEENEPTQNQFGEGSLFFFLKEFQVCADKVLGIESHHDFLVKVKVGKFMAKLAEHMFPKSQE
UniProt Q9NVJ2: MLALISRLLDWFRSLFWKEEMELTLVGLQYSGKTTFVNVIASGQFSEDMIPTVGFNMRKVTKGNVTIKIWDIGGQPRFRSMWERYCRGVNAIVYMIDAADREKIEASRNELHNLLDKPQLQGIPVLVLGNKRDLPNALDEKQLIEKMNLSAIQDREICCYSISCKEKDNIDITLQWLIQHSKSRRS
UniProt O95352: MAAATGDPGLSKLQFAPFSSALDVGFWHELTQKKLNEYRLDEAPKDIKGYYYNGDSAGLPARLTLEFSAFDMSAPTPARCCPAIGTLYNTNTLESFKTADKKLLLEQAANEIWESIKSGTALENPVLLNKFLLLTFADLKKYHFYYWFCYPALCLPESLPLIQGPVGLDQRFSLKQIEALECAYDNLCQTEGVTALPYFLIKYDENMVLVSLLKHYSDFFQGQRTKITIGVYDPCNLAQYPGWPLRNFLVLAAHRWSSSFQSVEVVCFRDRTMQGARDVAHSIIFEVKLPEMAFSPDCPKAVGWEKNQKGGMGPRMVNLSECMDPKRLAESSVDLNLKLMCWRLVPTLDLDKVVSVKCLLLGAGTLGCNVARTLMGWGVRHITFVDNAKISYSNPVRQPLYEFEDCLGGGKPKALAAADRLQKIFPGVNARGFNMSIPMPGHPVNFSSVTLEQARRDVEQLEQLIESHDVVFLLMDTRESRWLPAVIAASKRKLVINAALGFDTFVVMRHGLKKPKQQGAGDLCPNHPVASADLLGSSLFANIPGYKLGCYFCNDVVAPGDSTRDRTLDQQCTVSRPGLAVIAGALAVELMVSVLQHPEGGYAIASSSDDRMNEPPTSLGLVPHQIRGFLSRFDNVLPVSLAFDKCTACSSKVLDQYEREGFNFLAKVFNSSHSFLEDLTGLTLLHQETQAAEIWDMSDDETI
UniProt P08243: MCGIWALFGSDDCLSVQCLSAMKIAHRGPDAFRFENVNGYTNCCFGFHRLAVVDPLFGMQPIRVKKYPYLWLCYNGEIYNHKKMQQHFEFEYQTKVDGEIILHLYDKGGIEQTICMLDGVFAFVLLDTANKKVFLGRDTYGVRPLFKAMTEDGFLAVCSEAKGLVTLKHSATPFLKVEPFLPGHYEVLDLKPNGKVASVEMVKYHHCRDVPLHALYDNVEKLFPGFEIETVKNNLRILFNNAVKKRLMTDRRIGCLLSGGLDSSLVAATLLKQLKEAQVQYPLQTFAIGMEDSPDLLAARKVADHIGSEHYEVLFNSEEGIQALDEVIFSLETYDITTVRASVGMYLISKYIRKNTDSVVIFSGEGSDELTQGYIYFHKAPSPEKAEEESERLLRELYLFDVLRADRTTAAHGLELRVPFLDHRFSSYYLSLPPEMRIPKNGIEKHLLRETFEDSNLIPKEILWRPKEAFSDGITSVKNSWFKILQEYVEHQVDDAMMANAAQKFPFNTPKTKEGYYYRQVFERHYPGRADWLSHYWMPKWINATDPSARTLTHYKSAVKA
UniProt P18859: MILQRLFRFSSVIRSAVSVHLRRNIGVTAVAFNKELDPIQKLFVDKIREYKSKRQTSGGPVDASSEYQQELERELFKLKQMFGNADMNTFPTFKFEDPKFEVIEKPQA
UniProt O75348, whole entry, looked up: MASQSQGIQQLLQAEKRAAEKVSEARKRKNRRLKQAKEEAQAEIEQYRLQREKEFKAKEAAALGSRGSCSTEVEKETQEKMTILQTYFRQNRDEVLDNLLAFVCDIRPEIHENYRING
UniProt Q06055: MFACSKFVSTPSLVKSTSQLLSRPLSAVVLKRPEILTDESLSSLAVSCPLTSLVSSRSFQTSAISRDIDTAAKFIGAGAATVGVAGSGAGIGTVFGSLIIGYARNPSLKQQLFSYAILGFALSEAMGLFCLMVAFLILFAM
UniProt Q9NQ11: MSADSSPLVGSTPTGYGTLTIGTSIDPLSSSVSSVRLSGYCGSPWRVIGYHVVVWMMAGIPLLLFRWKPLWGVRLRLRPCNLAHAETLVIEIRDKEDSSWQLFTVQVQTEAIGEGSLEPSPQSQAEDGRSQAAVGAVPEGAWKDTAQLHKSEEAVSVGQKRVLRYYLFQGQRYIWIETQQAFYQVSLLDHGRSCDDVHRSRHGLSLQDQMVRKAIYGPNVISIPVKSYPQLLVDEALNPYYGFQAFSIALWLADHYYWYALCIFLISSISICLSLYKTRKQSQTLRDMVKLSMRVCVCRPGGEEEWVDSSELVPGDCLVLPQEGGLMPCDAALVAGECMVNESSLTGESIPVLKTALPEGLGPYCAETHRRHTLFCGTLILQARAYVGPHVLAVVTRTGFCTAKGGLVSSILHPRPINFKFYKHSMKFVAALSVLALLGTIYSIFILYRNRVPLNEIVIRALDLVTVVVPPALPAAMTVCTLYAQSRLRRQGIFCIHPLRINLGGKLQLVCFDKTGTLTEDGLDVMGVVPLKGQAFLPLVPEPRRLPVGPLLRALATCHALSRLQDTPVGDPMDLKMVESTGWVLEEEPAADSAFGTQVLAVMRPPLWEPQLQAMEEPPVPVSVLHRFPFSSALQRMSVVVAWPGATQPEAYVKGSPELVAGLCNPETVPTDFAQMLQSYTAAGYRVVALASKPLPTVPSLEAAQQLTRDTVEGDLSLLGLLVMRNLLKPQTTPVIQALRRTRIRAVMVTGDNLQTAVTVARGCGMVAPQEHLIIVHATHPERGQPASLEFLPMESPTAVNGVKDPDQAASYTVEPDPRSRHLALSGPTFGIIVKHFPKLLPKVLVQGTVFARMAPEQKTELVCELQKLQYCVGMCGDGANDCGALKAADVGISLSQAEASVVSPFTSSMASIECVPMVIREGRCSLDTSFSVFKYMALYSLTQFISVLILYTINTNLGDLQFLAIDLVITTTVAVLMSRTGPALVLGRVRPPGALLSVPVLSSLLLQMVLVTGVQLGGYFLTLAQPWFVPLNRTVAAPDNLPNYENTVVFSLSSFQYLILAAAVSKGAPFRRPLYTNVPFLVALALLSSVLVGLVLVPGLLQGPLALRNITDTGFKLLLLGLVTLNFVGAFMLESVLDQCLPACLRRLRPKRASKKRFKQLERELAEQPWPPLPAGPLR
UniProt Q9H1Y0: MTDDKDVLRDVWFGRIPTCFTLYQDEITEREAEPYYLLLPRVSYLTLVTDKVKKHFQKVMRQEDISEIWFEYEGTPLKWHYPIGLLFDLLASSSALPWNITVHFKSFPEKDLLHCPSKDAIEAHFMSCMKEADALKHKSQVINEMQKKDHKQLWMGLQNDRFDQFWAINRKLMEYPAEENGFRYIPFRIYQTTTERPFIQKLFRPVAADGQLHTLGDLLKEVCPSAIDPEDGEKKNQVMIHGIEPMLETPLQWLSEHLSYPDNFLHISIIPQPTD
UniProt P38606, whole entry, looked up: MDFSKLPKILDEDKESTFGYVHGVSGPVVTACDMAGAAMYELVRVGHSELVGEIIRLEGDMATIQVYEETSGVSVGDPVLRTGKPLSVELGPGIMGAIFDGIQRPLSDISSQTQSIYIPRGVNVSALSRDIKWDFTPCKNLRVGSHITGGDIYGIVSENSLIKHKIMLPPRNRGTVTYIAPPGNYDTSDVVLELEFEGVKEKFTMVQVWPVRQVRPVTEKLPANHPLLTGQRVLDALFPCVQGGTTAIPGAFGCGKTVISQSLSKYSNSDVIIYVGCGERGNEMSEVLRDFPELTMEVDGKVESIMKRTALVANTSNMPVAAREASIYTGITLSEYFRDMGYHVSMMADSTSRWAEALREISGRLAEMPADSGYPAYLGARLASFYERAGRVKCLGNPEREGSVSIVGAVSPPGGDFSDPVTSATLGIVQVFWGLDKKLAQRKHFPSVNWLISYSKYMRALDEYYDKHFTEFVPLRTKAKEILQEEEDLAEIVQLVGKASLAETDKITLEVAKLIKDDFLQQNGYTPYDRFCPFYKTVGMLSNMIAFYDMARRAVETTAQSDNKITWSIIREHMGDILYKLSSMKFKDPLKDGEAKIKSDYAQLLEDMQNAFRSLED
UniProt Q66PJ3: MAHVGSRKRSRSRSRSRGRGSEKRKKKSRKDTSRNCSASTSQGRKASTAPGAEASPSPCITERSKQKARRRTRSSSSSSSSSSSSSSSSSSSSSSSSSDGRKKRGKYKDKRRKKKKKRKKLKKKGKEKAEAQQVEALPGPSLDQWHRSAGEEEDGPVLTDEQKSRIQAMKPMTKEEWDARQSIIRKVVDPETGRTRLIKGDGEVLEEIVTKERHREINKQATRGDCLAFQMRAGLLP
UniProt Q9UII2: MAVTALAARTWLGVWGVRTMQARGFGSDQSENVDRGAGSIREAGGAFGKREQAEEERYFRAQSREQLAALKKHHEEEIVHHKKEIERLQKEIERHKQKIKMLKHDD

Tests used:
Assay in all cases: log2 fold change, soluble protein after heating vs DMSO (PISA); higher = thermal stabilisation; K562 cells, 10 uM, 30 min; active = over 0.2 and 3.5 SD of the protein, either way, in both replicates (recomputed)
[1] = compound: NC(=O)Nc1cc(-c2cccc(F)c2)sc1C(=O)N[C@H]1CCCNC1
Method in brief: (§1)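 Thermal stability values are relative to control samples and come from duplicates. They are expressed as log2 fold changes. For measurement, K562 cells (2×10^6 cells/mL) received 10 μM compound for 30 min, and aliquots were heated for 3 min over 48°C-58°C, pooled, and extracted at 4°C in PBS with 0.5% NP-40. Soluble protein, the supernatant after 21,000xg for 90 min, was quantified by TMTpro 16plex LC-MS/MS with equalised channel sums.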

[2] = compound: NC(=O)c1cnc(N[C@@H]2CCCC[C@@H]2N)nc1Nc1cccc(-n2nccn2)c1
Method in brief: as §1

[3] = compound: NC1(c2ccc(-c3nc4ccn5c(=O)[nH]nc5c4cc3-c3ccccc3)cc2)CCC1
Method in brief: as §1

[4] = compound: NCC(=O)Nc1ccc(-n2nc(C(F)(F)F)cc2-c2ccc3c(ccc4ccccc43)c2)cc1
Method in brief: as §1

entinostat = compound: Nc1ccccc1NC(=O)c1ccc(CNC(=O)OCc2cccnc2)cc1 [entinostat]
Method in brief: as §1

vorinostat = compound: O=C(CCCCCCC(=O)Nc1ccccc1)NO [vorinostat]
Method in brief: as §1

citarinostat = compound: O=C(CCCCCCNC(=O)c1cnc(N(c2ccccc2)c2ccccc2Cl)nc1)NO [citarinostat]
Method in brief: as §1

silmitasertib = compound: O=C(O)c1ccc2c(c1)nc(Nc1cccc(Cl)c1)c1ccncc12 [silmitasertib]
Method in brief: as §1

[5] = compound: O=C1NC(=O)C(c2cnc3ccccn23)=C1c1cn2c3c(cc(F)cc13)CN(C(=O)N1CCCCC1)CC2
Method in brief: as §1

[6] = compound: c1cc(OCCN2CCCCC2)cc(-c2n[nH]c3ccc(-c4nnc[nH]4)cc23)c1
Method in brief: as §1

Measured: log2 fold change

ATE1 isoform 2 (UniProt O95260)
inactive: [1] -0.037 | [2] -0.088 | [3] -0.014 | [4] 0.018 | entinostat 0.017 | vorinostat 0.071 | citarinostat 0.093 | silmitasertib 0.017 | [5] -0.024 | [6] 0.029

ATP1A1 (UniProt P05023)
inactive: [1] -0.055 | [2] 0.093 | [3] 0.116 | [4] 0.07 | entinostat -0.04 | vorinostat 0.03 | citarinostat -0.003 | silmitasertib -0.062 | [5] -0.077 | [6] 0.003

ASRGL1 (UniProt Q7L266)
inactive: [1] 0.061 | [2] -0.031 | [3] 0.008 | [4] -0.003 | entinostat -0.048 | vorinostat 0.01 | citarinostat 0.074 | silmitasertib 0 | [5] 0.008 | [6] -0.039

ATP1A4 (UniProt Q13733)
inactive: [1] 0.023 | [2] 0.069 | [3] 0.059 | [4] -0.03 | entinostat -0.001 | vorinostat -0.002 | citarinostat 0.121 | silmitasertib 0.007 | [5] 0.176 | [6] -0.088

ATF1 (UniProt P18846)
active: [5] 0.372
inactive: [1] 0.038 | [2] 0.096 | [3] 0.063 | [4] 0.127 | entinostat 0.066 | vorinostat -0.102 | citarinostat 0.144 | silmitasertib -0.146 | [6] -0.091

ARRB1 (UniProt P49407)
inactive: [1] -0.01 | [2] 0.088 | [3] -0.03 | [4] 0.024 | entinostat -0.026 | vorinostat 0.071 | citarinostat -0.049 | silmitasertib 0.004 | [5] -0.019 | [6] 0.036

ATP5ME (UniProt P56385)
inactive: [1] 0.003 | [2] -0.007 | [3] 0.057 | [4] -0.04 | entinostat 0.026 | vorinostat -0.027 | citarinostat -0.007 | silmitasertib -0.008 | [5] -0.037 | [6] -0.039

ATP5PB (UniProt P24539)
inactive: [1] -0.005 | [2] 0.005 | [3] 0.015 | [4] -0.017 | entinostat 0.05 | vorinostat -0.02 | citarinostat -0.001 | silmitasertib 0 | [5] 0 | [6] -0.027

ATP23 (UniProt Q9Y6H3)
inactive: [1] 0.014 | [2] 0.06 | [3] 0.002 | [4] -0.057 | entinostat -0.012 | vorinostat 0.044 | citarinostat -0.012 | silmitasertib -0.027 | [5] 0.02 | [6] -0.045

ATP6V0A2 (UniProt Q9Y487)
inactive: [1] -0.002 | [2] -0.072 | [3] -0.143 | [4] -0.024 | entinostat 0.021 | vorinostat 0 | citarinostat 0.036 | silmitasertib 0.079 | [5] 0.061 | [6] -0.043

ATPAF2 (UniProt Q8N5M1)
inactive: [1] -0.032 | [2] -0.055 | [3] -0.112 | [4] -0.042 | entinostat -0.057 | vorinostat 0.001 | citarinostat 0.031 | silmitasertib 0.05 | [5] -0.04 | [6] -0.017

ARMCX3 (UniProt Q9UH62)
inactive: [1] -0.134 | [2] 0 | [3] -0.153 | [4] -0.153 | entinostat 0.174 | vorinostat 0.063 | citarinostat 0.003 | silmitasertib -0.01 | [5] 0.076 | [6] -0.052

ARL8B (UniProt Q9NVJ2)
inactive: [1] -0.011 | [2] -0.015 | [3] -0.165 | [4] -0.018 | entinostat -0.023 | vorinostat -0.008 | citarinostat 0.055 | silmitasertib -0.008 | [5] -0.008 | [6] -0.026

ATG7 (UniProt O95352)
inactive: [1] 0.002 | [2] 0.018 | [3] -0.11 | [4] -0.021 | entinostat 0.009 | vorinostat 0.03 | citarinostat 0.061 | silmitasertib 0.003 | [5] -0.05 | [6] -0.042

ASNS (UniProt P08243)
inactive: [1] -0.033 | [2] -0.018 | [3] -0.019 | [4] 0.008 | entinostat -0.007 | vorinostat 0.018 | citarinostat 0.013 | silmitasertib -0.044 | [5] -0.021 | [6] -0.026

ATP5PF isoform 2 (UniProt P18859)
inactive: [1] 0.064 | [2] -0.001 | [3] 0.015 | [4] 0.044 | entinostat 0.056 | vorinostat -0.173 | citarinostat -0.073 | silmitasertib -0.019 | [5] -0.05 | [6] 0

ATP6V1G1 (UniProt O75348)
inactive: [1] -0.03 | [2] -0.075 | [3] -0.111 | [4] -0.069 | entinostat -0.045 | vorinostat -0.056 | citarinostat -0.041 | silmitasertib -0.037 | [5] -0.091 | [6] -0.018

ATP5MC2 isoform 2 (UniProt Q06055)
inactive: [1] 0.049 | [2] -0.016 | [3] -0.029 | [4] 0.058 | entinostat -0.137 | vorinostat 0.051 | citarinostat 0.021 | silmitasertib -0.021 | [5] -0.069 | [6] -0.109

ATL3 (UniProt Q6DD88)
inactive: [1] -0.004 | [2] -0.019 | [3] -0.121 | [4] -0.012 | entinostat 0.02 | vorinostat 0.062 | citarinostat 0.041 | silmitasertib -0.011 | [5] -0.033 | [6] -0.03

ATAD3A isoform 2 (UniProt Q9NVI7)
inactive: [1] 0.011 | [2] -0.088 | [3] -0.128 | [4] -0.088 | entinostat 0.053 | vorinostat 0.123 | citarinostat 0.076 | silmitasertib 0.051 | [5] 0.12 | [6] -0.127

ATN1 (UniProt P54259)
inactive: [1] 0.047 | [2] -0.056 | [3] -0.032 | [4] 0.015 | entinostat -0.054 | vorinostat 0.014 | citarinostat 0.032 | silmitasertib 0.021 | [5] 0.008 | [6] 0.023

ATP5F1B (UniProt P06576)
inactive: [1] 0.004 | [2] -0.007 | [3] 0.022 | [4] 0.003 | entinostat -0.018 | vorinostat -0.055 | citarinostat -0.028 | silmitasertib 0.005 | [5] -0.001 | [6] -0.02

ARV1 (UniProt Q9H2C2)
inactive: [1] -0.03 | [2] -0.055 | [3] -0.103 | [4] -0.101 | entinostat 0.019 | vorinostat 0.024 | citarinostat 0.052 | silmitasertib 0.037 | [5] -0.004 | [6] -0.113

ATP13A2 (UniProt Q9NQ11)
active: [3] -0.336
inactive: [1] 0.032 | [2] 0.01 | [4] 0.064 | entinostat -0.005 | vorinostat 0.005 | citarinostat -0.054 | silmitasertib 0.026 | [5] -0.052 | [6] -0.025

ATG5 (UniProt Q9H1Y0)
inactive: [1] 0.004 | [2] -0.003 | [3] -0.046 | [4] -0.046 | entinostat 0.015 | vorinostat 0.066 | citarinostat 0.024 | silmitasertib -0.006 | [5] -0.002 | [6] -0.054

ATP6V1A (UniProt P38606)
inactive: [1] -0.021 | [2] -0.071 | [3] -0.106 | [4] -0.046 | entinostat -0.006 | vorinostat -0.023 | citarinostat 0.01 | silmitasertib -0.001 | [5] -0.039 | [6] -0.047

ARL6IP4 (UniProt Q66PJ3)
inactive: [1] -0.035 | [2] 0.221 | [3] 0.025 | [4] 0.013 | entinostat -0.04 | vorinostat -0.011 | citarinostat 0.04 | silmitasertib -0.017 | [5] -0.007 | [6] -0.017

Reprinted at random: 2 records from the list, in no set order.
ARV1 (UniProt Q9H2C2)
inactive: [1] -0.03 | [2] -0.055 | [3] -0.103 | [4] -0.101 | entinostat 0.019 | vorinostat 0.024 | citarinostat 0.052 | silmitasertib 0.037 | [5] -0.004 | [6] -0.113

ATG5 (UniProt Q9H1Y0)
inactive: [1] 0.004 | [2] -0.003 | [3] -0.046 | [4] -0.046 | entinostat 0.015 | vorinostat 0.066 | citarinostat 0.024 | silmitasertib -0.006 | [5] -0.002 | [6] -0.054

Additional entries follow:

ARL6IP1 (UniProt Q15041)
inactive: [1] 0.035 | [2] 0.018 | [3] -0.001 | [4] 0.019 | entinostat 0.087 | vorinostat -0.04 | citarinostat -0.109 | silmitasertib 0.031 | [5] -0.059 | [6] -0.018

ATP5IF1 (UniProt Q9UII2)
inactive: [1] -0.039 | [2] -0.01 | [3] -0.02 | [4] 0.086 | entinostat -0.021 | vorinostat -0.07 | citarinostat -0.124 | silmitasertib -0.044 | [5] -0.092 | [6] 0.092

ARRB2 isoform 4 (UniProt P32121)
inactive: [1] 0.052 | [2] -0.034 | [3] -0.062 | [4] -0.052 | entinostat 0.028 | vorinostat -0.008 | citarinostat 0.041 | silmitasertib -0.05 | [5] -0.037 | [6] 0.018
